From the supplement of paper PMC12823440, “Inhibitors supercharge kinase turnover through native proteolytic circuits” (Nature, 2025)
Some of the results follow. The calls rarely recur for the same compound in another form.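 In K562 cells expressing nanoluciferase-fused kinases, luminescence was recorded at 4 h intervals between 2 and 18 h, normalized as percent of control with DMSO at 100% and a positive control at 0%. A significant (2 sigma) signal drop marks a time point as decreased. The authors' rule for a hit is not shown and takes in more than the number of time points.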

By UniProt entry, the sequences of proteins in these tests, tags left out.
UniProt O96017, whole entry: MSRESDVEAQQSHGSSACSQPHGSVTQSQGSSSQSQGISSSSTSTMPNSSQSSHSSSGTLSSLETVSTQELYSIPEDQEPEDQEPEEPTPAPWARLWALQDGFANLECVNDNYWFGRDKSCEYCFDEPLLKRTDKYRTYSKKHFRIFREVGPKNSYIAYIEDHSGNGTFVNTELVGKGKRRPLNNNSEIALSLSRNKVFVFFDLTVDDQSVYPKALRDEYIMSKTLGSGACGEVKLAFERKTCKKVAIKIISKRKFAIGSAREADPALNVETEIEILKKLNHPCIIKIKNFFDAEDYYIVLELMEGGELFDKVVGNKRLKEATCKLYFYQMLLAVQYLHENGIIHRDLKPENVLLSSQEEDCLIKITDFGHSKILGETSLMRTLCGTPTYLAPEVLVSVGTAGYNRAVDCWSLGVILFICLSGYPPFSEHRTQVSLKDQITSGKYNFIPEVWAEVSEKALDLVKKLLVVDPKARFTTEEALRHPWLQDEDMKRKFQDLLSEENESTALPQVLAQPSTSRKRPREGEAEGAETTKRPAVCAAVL

What follows are compounds tested against CHEK2 (UniProt O96017) (assay: number of time points (of 5) at which kinase-Nluc abundance scored as decreased, DMSO-normalised (count); higher = more persistent destabilization). Details: K562; 2-18 h.

O=c1nc(N2CCOCC2)oc2c(-c3cccc4c3sc3ccccc34)cccc12 (10 µM) and CSc1ccc(CN2CCCC(Nc3ccc4[nH]ncc4c3)C2)cc1 (configuration not stated) [Rho-Kinase-IN-1] (10 µM) are the same in “number of time points” value: 0 for the first, 0 for the second.

Going from O=C(Nc1cccc(-c2nncn2C2CC2)c1)c1cc(-n2cnc(C3CC3)c2)ccn1 (10 µM) to C=CS(=O)(=O)c1ccc(Nc2nc(OCC3CCCCC3)c3[nH]cnc3n2)cc1 (2.5 µM), the “number of time points” value rises from 0 to 3.

Oc1ccccc1C(=S)N1CCCC1 (10 µM) and O=c1[nH]ccc2cc(OC3CCNCC3)ccc12 (10 µM) are the same in “number of time points” value: 0 for the first, 0 for the second.

For COC(=O)N[C@@H](C)CNc1nccc(-c2cn(C(C)C)nc2-c2cc(Cl)cc(NS(C)(=O)=O)c2F)n1 [Encorafenib] (10 µM), the “number of time points” value was 0.
